The exact form of at least one protein or probe is not confirmed. No signal at the amounts used counts as a negative. At least one verdict rests on a figure or table, not on a statement of the authors. Where a protein sequence is shown, tags need not be part of it.
These sequences were tested against T1, CREB3L3 active form (in vitro translated) (Homo sapiens) (UniProt Q68CJ9) (assay: EMSA). Conditions: EMSA with in vitro-translated lysate, 4% polyacrylamide gel; buffer as previously described (ref 43), pH and temperature not stated; protein translated in …; residues 1-320.
T1 sequence (looked up): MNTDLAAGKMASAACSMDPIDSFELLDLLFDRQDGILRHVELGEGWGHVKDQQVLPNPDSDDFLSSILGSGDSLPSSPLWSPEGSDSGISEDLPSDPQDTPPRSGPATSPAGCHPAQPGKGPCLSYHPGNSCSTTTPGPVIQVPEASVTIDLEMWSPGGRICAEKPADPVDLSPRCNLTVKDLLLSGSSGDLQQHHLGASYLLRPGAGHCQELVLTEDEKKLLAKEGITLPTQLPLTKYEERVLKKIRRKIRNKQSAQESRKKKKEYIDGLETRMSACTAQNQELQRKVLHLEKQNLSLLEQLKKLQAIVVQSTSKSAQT
“GAAAACCTGGTGACGTTGGCTGAGCAAATA (double strand) [Cpt1a promoter CRE WT]”: binds. “GCTTACTTTCCTGGCCTTGCTCAGGGTTCTCTGG (double strand) [Bdh1 promoter -200 to -166]”: no binding. “GTCTACCCTTGATCTTCTGCTTGCCAGAGGGT (double strand) [Bdh1 promoter -126 to -98]”: binds. “GTGTGTGTCCCTTAGCTGCAGCGTCTACCCTTGAT (double strand) [Bdh1 promoter -151 to -117]”: no binding. “GTTCTCTGGCTGTGTGTGTGTGTGTGTGTGTCC (double strand) [Bdh1 promoter -175 to -141]”: no binding.

Reference: paper PMC5159891
